No constants are given. Whether binding was seen depends on the method and setting. Binding seen in cells or lysates may run through a third protein. Some binding calls cover weakened binding; strength is not graded here. For part of these data: Sequences can lack the tags named with a protein.
T1: GST-tagged Lin28B fusion protein (human (cDNA library from HEK293T cells)) (UniProt Q6ZN17)
T1 sequence: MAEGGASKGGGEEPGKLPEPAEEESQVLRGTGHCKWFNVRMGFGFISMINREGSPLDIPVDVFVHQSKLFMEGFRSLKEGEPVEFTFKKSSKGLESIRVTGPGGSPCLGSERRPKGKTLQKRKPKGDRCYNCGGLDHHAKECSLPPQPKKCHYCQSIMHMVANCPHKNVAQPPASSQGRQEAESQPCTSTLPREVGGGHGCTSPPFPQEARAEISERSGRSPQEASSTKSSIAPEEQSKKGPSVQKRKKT

Amino acid sequences for entries named in this document (tags omitted).
UniProt Q92831: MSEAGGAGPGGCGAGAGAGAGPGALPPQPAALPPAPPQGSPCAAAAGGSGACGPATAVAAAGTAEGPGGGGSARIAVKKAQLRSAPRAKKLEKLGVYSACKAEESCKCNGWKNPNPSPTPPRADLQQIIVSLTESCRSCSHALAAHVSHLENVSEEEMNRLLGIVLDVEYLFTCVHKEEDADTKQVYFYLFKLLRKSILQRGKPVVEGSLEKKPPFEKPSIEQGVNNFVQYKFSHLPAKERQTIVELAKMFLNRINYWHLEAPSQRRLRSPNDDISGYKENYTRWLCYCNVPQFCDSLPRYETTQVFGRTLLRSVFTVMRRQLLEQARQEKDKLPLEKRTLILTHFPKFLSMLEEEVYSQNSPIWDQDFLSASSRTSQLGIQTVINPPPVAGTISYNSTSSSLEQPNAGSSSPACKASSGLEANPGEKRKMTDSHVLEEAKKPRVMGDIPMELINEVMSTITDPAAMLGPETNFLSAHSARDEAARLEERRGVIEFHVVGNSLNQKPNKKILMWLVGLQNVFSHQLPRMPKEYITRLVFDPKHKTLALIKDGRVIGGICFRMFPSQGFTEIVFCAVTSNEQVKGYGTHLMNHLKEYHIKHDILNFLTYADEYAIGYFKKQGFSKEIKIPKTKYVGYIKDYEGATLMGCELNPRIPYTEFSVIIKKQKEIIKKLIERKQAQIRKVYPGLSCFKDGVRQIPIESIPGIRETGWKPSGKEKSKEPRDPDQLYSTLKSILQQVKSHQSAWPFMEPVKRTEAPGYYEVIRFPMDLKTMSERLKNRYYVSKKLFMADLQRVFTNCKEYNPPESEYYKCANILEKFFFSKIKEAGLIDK

T2: GFP-tagged Lin28B (human (cDNA library from HEK293T cells)) (UniProt Q6ZN17)
T2 sequence: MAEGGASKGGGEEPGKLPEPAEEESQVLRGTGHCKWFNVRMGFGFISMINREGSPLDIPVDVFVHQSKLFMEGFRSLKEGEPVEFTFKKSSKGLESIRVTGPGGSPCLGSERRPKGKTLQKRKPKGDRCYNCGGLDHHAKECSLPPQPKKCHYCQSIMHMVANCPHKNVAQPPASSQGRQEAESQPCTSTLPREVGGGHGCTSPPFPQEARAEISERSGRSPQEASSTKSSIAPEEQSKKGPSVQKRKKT


Assays:
[1] = molecular target: T1, GST-tagged Lin28B fusion protein (human (cDNA library from HEK293T cells)); experiment: pull-down; GST or GST-tagged Lin28B on beads incubated with whole cell extracts of HEK293T cells ectopically expressing FLAG-PCAF at 4 °C overnight; western blot; only the target purified
[2] = molecular target: T2, GFP-tagged Lin28B (human (cDNA library from HEK293T cells)); experiment: co-IP; HEK293T cells co-transfected with GFP-tagged Lin28B (or its GFP-tagged fragments L1~L7) and FLAG-PCAF; whole cell extracts IP-ed with anti-GFP beads at 4 °C overnight; blot with anti-FLAG; lysis buffer 50 mM HEPES pH 7.5, 150 mM NaCl, 1% Triton X-100
FLAG-PCAF = FLAG-PCAF (UniProt Q92831); experiment: co-IP; whole cell extracts of FLAG-PCAF or PCAF-ΔHAT-transfected cells IP-ed with anti-FLAG; blotted with anti-FLAG and anti-Lin28B (endogenous Lin28B); IP with IgG as control

Molecule | binding [1] | binding [2] | binding (FLAG-PCAF)
FLAG-PCAF (from UniProt Q92831 1-832) (enzyme) | binds | binds | –
Lin28B (endogenous) (protein, UniProt Q6ZN17 1-250) MAEGGASKGGGEEPGKLPEPAEEESQVLRGTGHCKWFNVRMGFGFISMINREGSPLDIPVDVFVHQSKLFMEGFRSLKEGEPVEFTFKKSSKGLESIRVTGPGGSPCLGSERRPKGKTLQKRKPKGDRCYNCGGLDHHAKECSLPPQPKKCHYCQSIMHMVANCPHKNVAQPPASSQGRQEAESQPCTSTLPREVGGGHGCTSPPFPQEARAEISERSGRSPQEASSTKSSIAPEEQSKKGPSVQKRKKT | – | – | binds
